Measurements: the supplement of paper PMC12067093, “Discovery and optimisation of a covalent ligand for TRIM25 and its application to targeted protein ubiquitination” (Chemical Science, 2025)
The other results are listed elsewhere or left out.

By UniProt entry, the sequences of proteins in these tests, tags left out. Where a name states a change or a piece, a line headed by the entry shows the natural chain unless it says otherwise.
UniProt P0DPB6, whole entry, looked up: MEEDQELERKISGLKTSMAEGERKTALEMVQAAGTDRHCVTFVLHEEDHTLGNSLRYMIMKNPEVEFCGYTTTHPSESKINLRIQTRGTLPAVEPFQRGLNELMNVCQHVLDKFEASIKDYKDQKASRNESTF
UniProt Q8WZA1: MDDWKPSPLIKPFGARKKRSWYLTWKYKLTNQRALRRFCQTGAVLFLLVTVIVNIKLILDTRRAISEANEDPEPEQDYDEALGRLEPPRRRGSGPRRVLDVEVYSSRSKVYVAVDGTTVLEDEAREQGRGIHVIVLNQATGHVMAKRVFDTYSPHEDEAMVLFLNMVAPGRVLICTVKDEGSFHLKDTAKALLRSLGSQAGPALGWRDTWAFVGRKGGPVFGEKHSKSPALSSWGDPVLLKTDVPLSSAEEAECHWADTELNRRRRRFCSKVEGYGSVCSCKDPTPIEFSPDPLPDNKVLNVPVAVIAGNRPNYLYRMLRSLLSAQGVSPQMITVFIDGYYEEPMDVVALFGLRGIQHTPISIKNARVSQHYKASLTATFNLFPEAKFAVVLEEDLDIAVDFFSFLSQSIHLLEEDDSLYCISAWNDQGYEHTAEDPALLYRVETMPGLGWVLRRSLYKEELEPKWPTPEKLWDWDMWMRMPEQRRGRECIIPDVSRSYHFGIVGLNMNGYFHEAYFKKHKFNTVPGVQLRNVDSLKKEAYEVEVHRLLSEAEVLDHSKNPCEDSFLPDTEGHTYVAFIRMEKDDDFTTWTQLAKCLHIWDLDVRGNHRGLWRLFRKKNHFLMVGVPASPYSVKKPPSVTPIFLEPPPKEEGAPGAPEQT
UniProt O75817: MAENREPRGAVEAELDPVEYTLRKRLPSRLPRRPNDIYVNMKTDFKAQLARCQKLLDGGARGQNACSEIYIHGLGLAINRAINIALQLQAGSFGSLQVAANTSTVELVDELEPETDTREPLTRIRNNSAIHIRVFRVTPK
UniProt Q96CD2: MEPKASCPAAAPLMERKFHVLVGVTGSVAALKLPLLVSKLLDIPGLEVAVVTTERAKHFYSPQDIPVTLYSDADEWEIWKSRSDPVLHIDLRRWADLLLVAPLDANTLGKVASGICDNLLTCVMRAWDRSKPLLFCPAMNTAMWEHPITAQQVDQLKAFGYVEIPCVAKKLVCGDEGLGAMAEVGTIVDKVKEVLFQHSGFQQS

Compound: CC1Cc2ccccc2N1C(=O)C1CCCN(C1)C(=O)CCl (mixture of isomers) [TRIM25 ligand 11 (diastereomer mixture)]
Experiment: probe-labelled cysteine peptide fold change vs DMSO (competition) (log2 fold change); higher = less target engagement (more negative = stronger competition)
Details: THP-1, incubation time: 4 h
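Also: competitive chemoproteomic profiling in live THP-1 cells with an iodoacetamide desthiobiotin (IA-DTB) probe, comparing probe-labelled peptide intensities in compound-treated cells against DMSO-treated controls.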

Target	probe-labelled cysteine peptide fold change (10 µM)	probe-labelled cysteine peptide fold change (50 µM)
POLR1D_P0DPB6_107_GLNELMNVCQHVLDK (UniProt P0DPB6)	-0.0767	-0.0948
POMGNT1_Q8WZA1_562_NPCEDSFLPDTEGHTYVAFIR (UniProt Q8WZA1)	0.214	0.00763
POP7_O75817_66_GQNACSEIYIHGLGLAINR (UniProt O75817)	-0.0588	-0.0168
POLB_P06746_178_KVDSEYIATVCGSFR (UniProt P06746)	0.0466	0.0904
PPCDC_Q96CD2_116_VASGICDNLLTCVMR (UniProt Q96CD2)	-0.00923	-0.0174
POLR2I_P36954_52_NCDYQQEADNSCIYVNK (UniProt P36954)	-0.1	-0.19
POFUT1_Q9H488_249_NACAMLK (UniProt Q9H488)	-0.122	-0.133
POLR2C_P19387_107_CNEDQTR (UniProt P19387)	0.504	-0.101
PPIC_P45877_191_VIDGMTVVHSIELQATDGHDRPLTNCSIINSGK (UniProt P45877)	0.251	0.00262

Exported in CSV form: entries from further up.
Target,probe-labelled cysteine peptide fold change (10 µM),probe-labelled cysteine peptide fold change (50 µM)
POP7_O75817_66_GQNACSEIYIHGLGLAINR (UniProt O75817),-0.0588,-0.0168
POLB_P06746_178_KVDSEYIATVCGSFR (UniProt P06746),0.0466,0.0904
